PubChem BioAssay AID1259254, NCATS, 2017
In all, the deposit lists about 59,000 reagents; this is a part drawn at random. About 1,550 of them (2.6%) count as active. 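G2 share is only a proxy for re-replication; each gene was hit by three separate siRNAs, and active genes were retested.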 The raw values are shown without normalisation. The numbers tell different reagents against one gene apart. Reagent sequences are not shown. Not given: the amount of reagent.

Screen: 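Finding genes that stop cells copying their DNA twice in one cycle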 (primary screen)
Cell system: human HCT116 colorectal cancer cells
Reagents: single siRNA against human genes
Time to read-out: 3 days
Detection: 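Imaged Hoechst DNA stain sorts each cell into a cycle phase by DNA amount; per plate, G2 fraction set to 0% for non-targeting and 100% for GMNN siRNA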
Direction: G2 robust z-score and G2 cells, % of GMNN control: higher = more G2 cells, more excess DNA replication; raw share of cells in G2: higher = larger share of cells with G2 DNA content
Hit rule: 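An siRNA counts as active if its G2 robust z-score lies at least 5 MADs above the screen median; here such calls match roughly 38% of GMNN control or more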

| gene knocked down | reagent no. | G2 robust z-score | G2 cells, % of GMNN control | raw share of cells in G2 (%) | Outcome |
| --- | --- | --- | --- | --- | --- |
| FOXN4 | 1 | -0.181 | 1.69 | 5.12 | inactive |
| FOXN4 | 2 | 1.56 | 14 | 11 | inactive |
| FOXN4 | 3 | 1.59 | 14.2 | 12.2 | inactive |
| NDUFA10 | 1 | -0.362 | 0.423 | 3.33 | inactive |
| NDUFA10 | 2 | 0.209 | 4.44 | 7.23 | inactive |
| NDUFA10 | 3 | 1.09 | 10.6 | 9.46 | inactive |
| LOC727808 (retired record) | 1 | 0.802 | 8.61 | 6.81 | inactive |
| LOC727808 (retired record) | 2 | 0.717 | 8.01 | 5.7 | inactive |
| LOC727808 (retired record) | 3 | -0.968 | -3.84 | 2.15 | inactive |
| WDR88 | 1 | -0.963 | -3.8 | 2.74 | inactive |
| WDR88 | 2 | 0.564 | 6.94 | 5.3 | inactive |
| WDR88 | 3 | -0.579 | -1.11 | 2.18 | inactive |
| NRG2 | 1 | -0.981 | -3.93 | 3.55 | inactive |
| NRG2 | 2 | 0.036 | 3.22 | 5.29 | inactive |
| NRG2 | 3 | 0.0584 | 3.38 | 4.63 | inactive |
| SCCPDH | 1 | 0.138 | 3.94 | 5.36 | inactive |
| SCCPDH | 2 | -0.259 | 1.14 | 4.98 | inactive |
| SCCPDH | 3 | 1.55 | 13.9 | 7.63 | inactive |
| PCSK5 | 1 | -0.714 | -2.05 | 4.13 | inactive |
| PCSK5 | 2 | -0.0181 | 2.84 | 5.16 | inactive |
| PCSK5 | 3 | -0.382 | 0.283 | 3.58 | inactive |
| COA4 | 1 | -1.65 | -8.61 | 0.521 | inactive |
| COA4 | 2 | -0.122 | 2.11 | 5.16 | inactive |
| COA4 | 3 | 0.861 | 9.03 | 6.18 | inactive |
| LYSMD2 | 1 | 0.813 | 8.69 | 6.73 | inactive |
| LYSMD2 | 2 | -0.201 | 1.55 | 3.66 | inactive |
| LYSMD2 | 3 | -0.221 | 1.41 | 3.64 | inactive |
| LHX8 | 1 | -1.16 | -5.16 | 3.67 | inactive |
| LHX8 | 2 | 0.7 | 7.89 | 7.17 | inactive |
| LHX8 | 3 | -1.3 | -6.17 | 2.55 | inactive |
| PSMG2 | 1 | -0.812 | -2.74 | 3.26 | inactive |
| PSMG2 | 2 | -0.354 | 0.48 | 4.69 | inactive |
| PSMG2 | 3 | -0.484 | -0.44 | 2.89 | inactive |
| CAPN11 | 1 | -0.326 | 0.675 | 5.79 | inactive |
| CAPN11 | 2 | 1.96 | 16.8 | 10.8 | inactive |
| CAPN11 | 3 | 0.0705 | 3.46 | 5.2 | inactive |
| PROSER1 | 1 | -0.0321 | 2.74 | 5.58 | inactive |
| PROSER1 | 2 | 2.37 | 19.7 | 12.9 | inactive |
| PROSER1 | 3 | -0.224 | 1.39 | 2.76 | inactive |
| PFKFB1 | 1 | -0.535 | -0.797 | 4.54 | inactive |
| PFKFB1 | 2 | 4.39 | 33.8 | 14.5 | inactive |
| PFKFB1 | 3 | 0.468 | 6.26 | 5.38 | inactive |
| ZNF71 | 1 | 0.993 | 9.96 | 6.31 | inactive |
| ZNF71 | 2 | -1.26 | -5.9 | 3.24 | inactive |
| ZNF71 | 3 | -0.379 | 0.298 | 3.73 | inactive |
| RPF1 | 1 | 0.218 | 4.5 | 6.31 | inactive |
| RPF1 | 2 | 1.39 | 12.7 | 9.86 | inactive |
| RPF1 | 3 | -0.58 | -1.11 | 2.07 | inactive |
